The supplement of paper PMC11732987, “Enantioselective OTUD7B fragment discovery through chemoproteomics screening and high-throughput optimisation” (Communications Chemistry, 2025)
The other results are listed elsewhere or left out. The data scatter; read single values as rough.

Amino acid sequences for entries named in this document (tags omitted). A change or cut given only in a name is not applied to a line headed by its entry. Residues count along the entry.
UniProt O75592: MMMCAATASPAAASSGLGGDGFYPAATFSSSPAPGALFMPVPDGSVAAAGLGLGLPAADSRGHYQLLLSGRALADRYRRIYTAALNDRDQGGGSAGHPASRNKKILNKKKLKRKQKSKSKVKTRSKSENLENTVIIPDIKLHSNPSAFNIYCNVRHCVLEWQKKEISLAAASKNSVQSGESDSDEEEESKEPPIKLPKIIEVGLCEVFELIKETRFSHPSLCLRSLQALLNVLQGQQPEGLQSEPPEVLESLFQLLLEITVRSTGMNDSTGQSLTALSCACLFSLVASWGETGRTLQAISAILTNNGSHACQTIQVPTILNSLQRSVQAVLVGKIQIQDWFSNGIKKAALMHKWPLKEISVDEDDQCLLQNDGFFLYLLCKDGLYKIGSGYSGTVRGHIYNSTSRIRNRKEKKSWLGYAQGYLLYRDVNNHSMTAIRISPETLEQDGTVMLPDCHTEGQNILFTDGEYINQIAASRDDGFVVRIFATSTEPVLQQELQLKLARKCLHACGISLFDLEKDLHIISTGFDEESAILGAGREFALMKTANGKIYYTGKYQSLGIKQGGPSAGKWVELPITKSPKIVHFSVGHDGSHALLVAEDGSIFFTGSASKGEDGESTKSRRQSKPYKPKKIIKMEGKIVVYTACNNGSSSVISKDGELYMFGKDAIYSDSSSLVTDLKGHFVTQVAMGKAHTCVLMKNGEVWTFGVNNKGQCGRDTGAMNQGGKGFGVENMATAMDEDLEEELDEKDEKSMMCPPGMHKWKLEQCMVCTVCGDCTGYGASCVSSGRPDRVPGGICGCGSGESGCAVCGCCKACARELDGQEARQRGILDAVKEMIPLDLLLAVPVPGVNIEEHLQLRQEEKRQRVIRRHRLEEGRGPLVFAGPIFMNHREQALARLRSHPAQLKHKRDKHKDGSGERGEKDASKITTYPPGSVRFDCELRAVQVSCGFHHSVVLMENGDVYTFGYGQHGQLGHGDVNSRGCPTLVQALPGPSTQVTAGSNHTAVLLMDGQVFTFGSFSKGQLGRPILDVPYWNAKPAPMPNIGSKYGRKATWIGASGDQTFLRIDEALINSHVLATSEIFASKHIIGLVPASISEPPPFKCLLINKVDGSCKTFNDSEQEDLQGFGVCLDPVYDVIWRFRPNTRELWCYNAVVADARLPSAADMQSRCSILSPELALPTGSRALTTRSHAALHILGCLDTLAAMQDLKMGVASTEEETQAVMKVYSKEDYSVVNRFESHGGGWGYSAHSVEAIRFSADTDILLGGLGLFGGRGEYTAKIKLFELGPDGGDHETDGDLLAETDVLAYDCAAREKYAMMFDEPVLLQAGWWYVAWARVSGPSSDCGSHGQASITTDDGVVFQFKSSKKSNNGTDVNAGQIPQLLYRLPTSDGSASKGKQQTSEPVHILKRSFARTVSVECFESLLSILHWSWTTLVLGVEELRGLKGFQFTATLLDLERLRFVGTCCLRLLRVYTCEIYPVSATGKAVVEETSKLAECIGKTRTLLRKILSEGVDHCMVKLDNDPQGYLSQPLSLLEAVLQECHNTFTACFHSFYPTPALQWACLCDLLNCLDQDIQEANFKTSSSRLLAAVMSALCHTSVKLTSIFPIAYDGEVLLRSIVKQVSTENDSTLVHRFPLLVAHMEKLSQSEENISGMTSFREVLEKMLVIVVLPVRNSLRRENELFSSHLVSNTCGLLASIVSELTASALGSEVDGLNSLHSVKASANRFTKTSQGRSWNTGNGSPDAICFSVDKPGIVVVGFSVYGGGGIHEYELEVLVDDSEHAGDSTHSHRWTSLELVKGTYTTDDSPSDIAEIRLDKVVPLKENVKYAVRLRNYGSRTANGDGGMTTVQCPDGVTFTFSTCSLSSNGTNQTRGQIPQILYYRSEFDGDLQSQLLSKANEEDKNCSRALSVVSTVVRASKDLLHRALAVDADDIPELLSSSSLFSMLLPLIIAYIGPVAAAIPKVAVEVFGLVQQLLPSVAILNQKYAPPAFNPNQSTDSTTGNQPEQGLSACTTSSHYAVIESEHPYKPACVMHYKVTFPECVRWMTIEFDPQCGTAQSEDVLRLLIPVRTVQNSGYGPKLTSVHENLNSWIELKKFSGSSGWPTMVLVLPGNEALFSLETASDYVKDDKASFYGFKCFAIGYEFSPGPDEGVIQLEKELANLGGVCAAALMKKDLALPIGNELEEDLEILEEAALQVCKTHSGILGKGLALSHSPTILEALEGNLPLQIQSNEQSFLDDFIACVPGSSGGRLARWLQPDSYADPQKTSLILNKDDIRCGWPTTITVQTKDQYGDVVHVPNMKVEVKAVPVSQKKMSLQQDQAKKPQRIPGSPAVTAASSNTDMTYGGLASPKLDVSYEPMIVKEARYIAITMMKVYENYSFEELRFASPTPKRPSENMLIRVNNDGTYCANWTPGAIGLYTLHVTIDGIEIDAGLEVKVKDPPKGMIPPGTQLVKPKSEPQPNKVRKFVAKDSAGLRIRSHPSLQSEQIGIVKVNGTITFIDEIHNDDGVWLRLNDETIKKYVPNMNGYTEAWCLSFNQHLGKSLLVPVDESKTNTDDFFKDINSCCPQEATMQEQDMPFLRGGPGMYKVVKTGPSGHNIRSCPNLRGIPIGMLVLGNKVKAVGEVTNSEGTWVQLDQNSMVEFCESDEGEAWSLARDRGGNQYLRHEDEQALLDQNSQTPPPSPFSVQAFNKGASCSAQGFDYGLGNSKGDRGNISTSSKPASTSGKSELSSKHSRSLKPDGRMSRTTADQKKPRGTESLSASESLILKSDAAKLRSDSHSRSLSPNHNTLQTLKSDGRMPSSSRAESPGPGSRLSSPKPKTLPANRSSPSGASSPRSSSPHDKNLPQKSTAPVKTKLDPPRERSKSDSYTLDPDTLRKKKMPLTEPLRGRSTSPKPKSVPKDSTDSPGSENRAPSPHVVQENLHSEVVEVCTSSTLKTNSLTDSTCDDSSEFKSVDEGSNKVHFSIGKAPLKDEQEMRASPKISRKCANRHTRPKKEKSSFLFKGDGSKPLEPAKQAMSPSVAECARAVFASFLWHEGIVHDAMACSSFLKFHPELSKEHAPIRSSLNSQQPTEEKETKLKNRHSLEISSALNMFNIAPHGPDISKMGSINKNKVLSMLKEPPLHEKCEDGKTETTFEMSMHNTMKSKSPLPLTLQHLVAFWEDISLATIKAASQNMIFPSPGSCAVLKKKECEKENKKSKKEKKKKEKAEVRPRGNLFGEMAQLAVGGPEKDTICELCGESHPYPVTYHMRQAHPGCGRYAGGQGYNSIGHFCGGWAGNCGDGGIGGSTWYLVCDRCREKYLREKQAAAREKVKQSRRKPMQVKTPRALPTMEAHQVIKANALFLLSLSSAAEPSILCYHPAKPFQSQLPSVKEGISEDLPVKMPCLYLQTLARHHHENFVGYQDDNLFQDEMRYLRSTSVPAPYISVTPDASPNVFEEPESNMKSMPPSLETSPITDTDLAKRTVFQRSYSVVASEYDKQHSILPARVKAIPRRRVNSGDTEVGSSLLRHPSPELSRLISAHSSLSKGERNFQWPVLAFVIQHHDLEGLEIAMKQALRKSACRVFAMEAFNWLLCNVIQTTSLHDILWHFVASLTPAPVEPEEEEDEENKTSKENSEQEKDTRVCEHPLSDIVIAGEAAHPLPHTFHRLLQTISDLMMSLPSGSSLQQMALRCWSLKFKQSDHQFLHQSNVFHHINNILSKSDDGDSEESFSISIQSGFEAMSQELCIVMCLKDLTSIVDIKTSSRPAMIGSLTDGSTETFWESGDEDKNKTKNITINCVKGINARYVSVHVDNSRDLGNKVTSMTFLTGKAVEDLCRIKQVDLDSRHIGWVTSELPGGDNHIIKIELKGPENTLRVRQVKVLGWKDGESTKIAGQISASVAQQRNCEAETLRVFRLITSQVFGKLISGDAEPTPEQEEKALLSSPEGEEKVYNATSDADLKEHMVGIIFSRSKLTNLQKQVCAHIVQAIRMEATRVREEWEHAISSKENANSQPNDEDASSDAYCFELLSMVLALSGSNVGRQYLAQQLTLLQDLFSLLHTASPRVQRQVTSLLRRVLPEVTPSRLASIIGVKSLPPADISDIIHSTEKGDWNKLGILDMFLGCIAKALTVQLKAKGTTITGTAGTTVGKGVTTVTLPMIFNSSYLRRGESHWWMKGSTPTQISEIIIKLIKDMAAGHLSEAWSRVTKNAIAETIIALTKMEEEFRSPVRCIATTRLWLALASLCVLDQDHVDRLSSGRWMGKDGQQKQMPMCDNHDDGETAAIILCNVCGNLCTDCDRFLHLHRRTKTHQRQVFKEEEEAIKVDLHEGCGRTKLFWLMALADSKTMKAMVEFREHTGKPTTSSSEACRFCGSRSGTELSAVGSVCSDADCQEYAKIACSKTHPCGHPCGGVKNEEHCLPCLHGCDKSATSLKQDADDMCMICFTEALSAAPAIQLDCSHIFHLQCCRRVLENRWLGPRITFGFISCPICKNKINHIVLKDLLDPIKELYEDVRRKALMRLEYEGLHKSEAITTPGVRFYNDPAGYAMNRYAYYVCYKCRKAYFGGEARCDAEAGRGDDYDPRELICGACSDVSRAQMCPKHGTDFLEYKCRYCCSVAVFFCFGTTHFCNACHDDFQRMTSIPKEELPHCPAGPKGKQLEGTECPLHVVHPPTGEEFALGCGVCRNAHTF
UniProt P42285, 101-128: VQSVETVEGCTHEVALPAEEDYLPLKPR
UniProt P42285, 804-824: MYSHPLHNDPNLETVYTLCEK
UniProt Q86UW6, 1075-1097: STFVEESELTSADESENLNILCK
UniProt Q69YI7: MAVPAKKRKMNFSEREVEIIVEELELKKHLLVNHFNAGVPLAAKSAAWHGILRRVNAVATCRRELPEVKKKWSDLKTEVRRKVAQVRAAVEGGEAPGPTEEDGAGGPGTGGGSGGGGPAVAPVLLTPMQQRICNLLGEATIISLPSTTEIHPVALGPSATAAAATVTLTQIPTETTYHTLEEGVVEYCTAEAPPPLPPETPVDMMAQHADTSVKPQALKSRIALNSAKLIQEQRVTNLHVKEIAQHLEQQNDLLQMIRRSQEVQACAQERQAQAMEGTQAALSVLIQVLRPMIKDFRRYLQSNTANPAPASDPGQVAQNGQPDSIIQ
UniProt P53602, 2-22: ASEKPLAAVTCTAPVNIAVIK
UniProt Q9Y4B5, 1336-1363: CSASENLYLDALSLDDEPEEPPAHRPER
UniProt Q6N069, 804-824: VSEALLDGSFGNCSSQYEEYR
UniProt O75570: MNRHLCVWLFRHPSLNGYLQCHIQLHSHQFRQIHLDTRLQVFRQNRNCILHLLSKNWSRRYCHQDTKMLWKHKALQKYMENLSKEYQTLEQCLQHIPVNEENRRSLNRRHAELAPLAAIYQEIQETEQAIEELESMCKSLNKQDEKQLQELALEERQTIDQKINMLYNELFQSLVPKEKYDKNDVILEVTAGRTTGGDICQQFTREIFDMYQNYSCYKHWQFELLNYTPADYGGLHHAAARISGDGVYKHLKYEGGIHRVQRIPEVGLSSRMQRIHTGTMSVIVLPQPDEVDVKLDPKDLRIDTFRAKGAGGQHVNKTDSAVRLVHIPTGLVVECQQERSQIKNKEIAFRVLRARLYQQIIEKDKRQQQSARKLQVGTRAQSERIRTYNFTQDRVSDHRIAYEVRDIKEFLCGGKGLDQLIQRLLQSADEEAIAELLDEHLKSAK
UniProt O95544, 78-97: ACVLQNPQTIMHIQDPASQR
UniProt Q96H55, whole entry, looked up: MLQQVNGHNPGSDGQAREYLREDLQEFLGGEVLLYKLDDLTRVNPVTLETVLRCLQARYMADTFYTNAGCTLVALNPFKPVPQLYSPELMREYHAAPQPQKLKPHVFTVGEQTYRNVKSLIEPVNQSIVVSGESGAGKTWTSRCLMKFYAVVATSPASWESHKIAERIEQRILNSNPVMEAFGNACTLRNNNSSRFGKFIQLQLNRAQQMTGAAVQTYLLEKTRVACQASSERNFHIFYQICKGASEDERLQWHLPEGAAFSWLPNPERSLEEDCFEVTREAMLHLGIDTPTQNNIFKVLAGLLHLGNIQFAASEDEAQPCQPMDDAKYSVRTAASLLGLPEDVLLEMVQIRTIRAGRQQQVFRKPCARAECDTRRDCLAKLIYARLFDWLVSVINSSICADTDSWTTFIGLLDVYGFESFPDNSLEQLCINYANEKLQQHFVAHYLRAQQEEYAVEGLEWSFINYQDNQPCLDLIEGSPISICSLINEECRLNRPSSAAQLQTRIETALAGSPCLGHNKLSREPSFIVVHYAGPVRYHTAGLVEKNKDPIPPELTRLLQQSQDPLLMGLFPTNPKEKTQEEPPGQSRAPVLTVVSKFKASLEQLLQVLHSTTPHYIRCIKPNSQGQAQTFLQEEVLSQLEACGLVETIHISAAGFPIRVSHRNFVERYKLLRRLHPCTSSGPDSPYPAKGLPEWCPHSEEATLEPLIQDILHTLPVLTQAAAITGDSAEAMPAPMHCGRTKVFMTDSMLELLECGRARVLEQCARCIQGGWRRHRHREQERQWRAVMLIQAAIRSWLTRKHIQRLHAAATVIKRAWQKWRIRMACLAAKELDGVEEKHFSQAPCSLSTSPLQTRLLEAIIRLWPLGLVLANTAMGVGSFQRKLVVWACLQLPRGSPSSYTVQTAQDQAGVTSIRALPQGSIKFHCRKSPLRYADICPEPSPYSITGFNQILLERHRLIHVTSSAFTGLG

Tests used:
[1] = compound: ClCC(=O)N[C@@H]1CCCc2ccccc12; experiment: log2 mean competition ratio of IA-DTB cysteine labelling (DMSO/compound) (log2 ratio); higher = stronger cysteine engagement by compound; conditions: treatment time: 4 h, cell line lysate: HEK293T
Protocol: (§1)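 IA-DTB competitive cysteine chemoproteomics in HEK293T RIPA lysate. Lysates were treated with compound 29 or 30 at 50 or 200 µM for 4 h, then IA-DTB (500 µM, 1 h), trypsin-digested, NeutrAvidin-enriched and analysed by diaPASEF. Competition ratio = intensity DMSO / intensity compound (n=4 treated, n=64 DMSO); binding: mean log2 CR ≥ 1 and p ≤ 0.05 plus QC filters. Target is the cysteine site.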

[2] = compound: ClCC(=O)N[C@H]1CCCc2ccccc12; experiment: as above; conditions: treatment time: 4 h, cell line lysate: HEK293T
Protocol: as §1

Target	log2 mean competition ratio ([1]; 50 µM)	log2 mean competition ratio ([1]; 200 µM)	log2 mean competition ratio ([2]; 50 µM)	log2 mean competition ratio ([2]; 200 µM)
NAPA C42 (UniProt P54920)	0.108	-0.133	-0.338	-0.0123
MRPL42 C45 (UniProt Q9Y6G3)	0.0689	0.316	0.132	0.0846
MYCBP2 C4638 (UniProt O75592)	-0.0882	-0.19	0.258	-0.283
MSH3 C763 (UniProt P20585)	0.14	-0.313	0.185	-0.238
MTREX C110 (UniProt P42285)	-0.194	-0.345	-0.166	-0.57
NAP1L4 C77	0.252	-0.632	0.221	-0.22
MTREX C822 (UniProt P42285)	0.103	0.0806	0.00514	-0.0818
NADK2 C58 (UniProt Q4G0N4)	0.00784	0.0695	0.182	0.105
N4BP2 C1096 (UniProt Q86UW6)	-0.191	0.273	0.352	0.142
MSI2 C168 (UniProt Q96DH6)	-0.135	-0.226	-0.162	-0.235
NAIF1 C61 (UniProt Q69YI7)	0.0844	0.264	-0.0865	0.00603
NAP1L3 C118	-0.372	0.0126	0.0429	0.0894
MTMR6 C214 (UniProt Q9Y217)	-0.176	0.345	-0.819	0.111
MTREX C650 (UniProt P42285)	-0.129	-0.292	-0.299	-0.135
MYO1D C666 (UniProt O94832)	-0.0756	0.00902	-0.667	-0.0438
MSH6 C426 (UniProt P52701)	-0.0723	-0.207	-0.223	-0.176
MVD C108 (UniProt P53602)	0.00625	0.491	0.0393	0.783
MTMR10 C314 (UniProt Q9NXD2)	0.255	-0.129	0.548	0.178
MTCL1 C1336 (UniProt Q9Y4B5)	0.448	-0.00173	0.501	-0.116
N4BP2 C1438 (UniProt Q86UW6)	0.354	-0.166	0.107	-0.082
MYO6 C252 (UniProt Q9UM54)	0.0344	-0.0249	-0.24	-0.107
MVD C12 (UniProt P53602)	-0.132	-0.414	-0.227	-0.687
MYO5A C1711 (UniProt Q9Y4I1)	0.0267	0.405	-0.109	0.484
MYBBP1A C890 (UniProt Q9BQG0)	0.0272	0.00568	-0.125	-0.024

Target	log2 mean competition ratio ([1]; 50 µM)	log2 mean competition ratio ([1]; 200 µM)	log2 mean competition ratio ([2]; 50 µM)	log2 mean competition ratio ([2]; 200 µM)
MYO1C C575 (UniProt O00159)	-0.0476	0.0301	-0.0595	0.0915
N4BP2 C1764 (UniProt Q86UW6)	0.269	-0.125	0.466	-0.191
NAA16 C816 (UniProt Q6N069)	-0.359	-0.0203	0.319	-0.0171
MSH2 C404 (UniProt P43246)	-0.121	0.111	0.177	0.277
MYH9 C1437 (UniProt P35579)	-0.147	-0.116	0.226	-0.0898
MYO5B C681	0.271	0.0766	0.0748	-0.031
MRPL18 C125 (UniProt Q9H0U6)	–	–	0.252	-0.0931
MYCBP2 C3824 (UniProt O75592)	-0.0321	0.186	-0.0102	0.164
MTREX C938 (UniProt P42285)	–	–	-0.0904	0.111
MTERF4 C76 (UniProt Q7Z6M4)	–	–	-0.304	0.259
MYO18A C250 (UniProt Q92614)	-0.0605	–	0.0404	0.353
MRPL58 C150 (UniProt Q14197)	–	–	–	-0.00857
MTRF1 C335 (UniProt O75570)	–	–	-0.374	0.19
NADK C79 (UniProt O95544)	–	–	0.228	0.0444
NAB2 C499 (UniProt Q15742)	–	–	0.434	-0.174
NAMPT C401	–	–	-0.242	0.281
MRPL53 C49 (UniProt Q96EL3)	-0.202	0.0417	-0.0665	0.145
MYO19 C227 (UniProt Q96H55)	-0.293	0.0829	0.0678	0.235
MTIF2 C646 (UniProt P46199)	-0.211	-0.0513	-0.0846	-0.0105
MRPL22 C70 (UniProt Q9NWU5)	0.0806	0.383	0.0665	0.0598
MYO19 C515 (UniProt Q96H55)	0.45	0.247	0.766	0.166
MYH14 C324 (UniProt Q7Z406)	–	–	0.03	-0.0507
MVB12A C33 (UniProt Q96EY5)	–	–	0.14	-0.0499

Pulled one by one from the list above (3):
Target	log2 mean competition ratio ([1]; 50 µM)	log2 mean competition ratio ([1]; 200 µM)	log2 mean competition ratio ([2]; 50 µM)	log2 mean competition ratio ([2]; 200 µM)
MYO19 C515 (UniProt Q96H55)	0.45	0.247	0.766	0.166
MYCBP2 C3824 (UniProt O75592)	-0.0321	0.186	-0.0102	0.164
MTIF2 C646 (UniProt P46199)	-0.211	-0.0513	-0.0846	-0.0105
